According to the supplement of paper PMC12889115:
The other results are listed elsewhere or left out. Values are raw readings; no control value is given beside them.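 First-pass screen: polymyxin B was added at a level that permeabilizes the Salmonella outer membrane while sparing the inner membrane. DMSO wells, with and without polymyxin B, defined maximum growth. Because plates differed from one another, each plate's data were ranked separately and the compounds with the lowest OD600 were carried forward as hits.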

Tested on: Salmonella enterica serovar Typhimurium SL1344
Experiment: bacterial growth OD600 after 18 h with compound and polymyxin B; higher = more bacterial growth (less inhibition)
Conditions: 50 µM, Mueller-Hinton broth

SMILES	bacterial growth OD600 (polymyxin B 1 µg/mL)	bacterial growth OD600 (polymyxin B 0.75 µg/mL)
COC(=O)CNC(=O)CCc1nnc(Cc2cccc(C(F)(F)F)c2)o1	0.978	–
COC(=O)c1cccc(C(=O)N2CCCC(N3CCN(c4ccccc4OC)CC3)C2)c1 (stereo not given)	0.837	–
COc1ccccc1C1CCCN1C(=O)CCC1(Cc2ccc(C)cc2)CCC(=O)N1 (stereo not given)	–	0.964
CO[C@H]1[C@H](NC(=O)CSC)c2ccccc2C12CCN(Cc1cnc(N(C)C)s1)CC2	–	0.82
CCOc1ccccc1CN1CCCC(CNC(=O)Cc2ccc(OC)cc2)C1 (stereo not given)	1.02	–
COC(c1ccc2c(c1)CN(C(=O)c1ocnc1C)CCO2)C1CCCCC1 (stereo not given)	–	0.741
Cn1c(C2CCCO2)nc2cc(NC(=O)CC3CCCC3)cc(C(=O)N3CCCCCC3)c21 (stereo not given)	–	0.87
CCOC(=O)N1CCN(C(=O)c2cc(NC(=O)Cc3ccccc3)cc3nc(COC)n(C)c23)CC1	–	0.929
O=C(CCn1cnc2ccccc2c1=O)N1CCCC(Nc2ccccc2)C1 (stereo not given)	1.18	–
COc1ccccc1CN(C)C(=O)c1cc(Cn2nc(C)cc2C)[nH]n1	–	0.852
Cc1ncc2c(c1CNC(=O)/C=C/c1cccs1)CCN(C(=O)COc1ccccc1)C2	–	0.869
O=C(c1cc(COc2ccc(F)cc2Cl)on1)N1CCN(C2CCCCC2)C(=O)C1	0.579	–
COC(=O)CCC(=O)N1CCc2onc(-c3ccccc3F)c2C1	–	0.976
O=C1NCCN(Cc2ccccc2)C1CC(=O)N1CCN(c2ccccc2)CC1 (stereo not given)	0.85	–
CN1CCN([C@@H]2CCN(Cc3ccc(Oc4ncccn4)cc3)C[C@H]2O)CC1	–	0.82
CCOCCCNC(=O)C1CCC(=O)N(CCc2ccc(OC)cc2)C1 (stereo not given)	0.848	–
CCOC(=O)C1(CCCc2ccccc2)CCN(C(=O)CCSC)CC1	0.102	–
CCc1nc(C)c(C(=O)NCc2cccnc2N(CC)CC)o1	0.942	–
COc1ccc(/C=C/C(=O)N2CCCC(CNC(=O)c3ccco3)C2)cc1 (stereo not given)	0.887	–
COCCN(C)Cc1cnc(S(=O)(=O)Cc2ccccc2)n1CC(C)C	1.09	–

Full records, quoted from the list. Values in the order: bacterial growth OD600 (polymyxin B 1 µg/mL) | bacterial growth OD600 (polymyxin B 0.75 µg/mL)
O=C1NCCN(Cc2ccccc2)C1CC(=O)N1CCN(c2ccccc2)CC1 (stereo not given) is entered as 0.85 | –
CO[C@H]1[C@H](NC(=O)CSC)c2ccccc2C12CCN(Cc1cnc(N(C)C)s1)CC2 is entered as – | 0.82
